Source: paper PMC12886786

By UniProt entry, the sequences of proteins in these tests, tags left out. Where a name states a change or a piece, a line headed by the entry shows the natural chain unless it says otherwise.
UniProt O60331: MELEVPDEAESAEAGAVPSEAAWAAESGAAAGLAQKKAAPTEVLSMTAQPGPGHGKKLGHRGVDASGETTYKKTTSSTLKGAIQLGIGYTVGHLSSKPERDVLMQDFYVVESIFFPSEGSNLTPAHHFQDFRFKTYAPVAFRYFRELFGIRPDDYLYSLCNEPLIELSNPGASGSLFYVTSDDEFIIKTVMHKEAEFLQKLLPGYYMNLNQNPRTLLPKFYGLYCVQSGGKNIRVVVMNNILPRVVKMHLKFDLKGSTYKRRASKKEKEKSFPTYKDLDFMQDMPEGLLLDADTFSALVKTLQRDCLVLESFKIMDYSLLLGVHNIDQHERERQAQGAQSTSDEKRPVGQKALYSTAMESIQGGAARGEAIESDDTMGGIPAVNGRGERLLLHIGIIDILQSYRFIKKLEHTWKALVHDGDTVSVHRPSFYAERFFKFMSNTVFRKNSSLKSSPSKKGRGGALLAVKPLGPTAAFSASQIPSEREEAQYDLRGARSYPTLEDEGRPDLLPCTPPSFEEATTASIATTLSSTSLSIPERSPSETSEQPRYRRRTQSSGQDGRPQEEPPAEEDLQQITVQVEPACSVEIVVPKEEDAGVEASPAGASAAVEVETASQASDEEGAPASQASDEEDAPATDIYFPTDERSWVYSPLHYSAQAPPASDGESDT
UniProt O14578: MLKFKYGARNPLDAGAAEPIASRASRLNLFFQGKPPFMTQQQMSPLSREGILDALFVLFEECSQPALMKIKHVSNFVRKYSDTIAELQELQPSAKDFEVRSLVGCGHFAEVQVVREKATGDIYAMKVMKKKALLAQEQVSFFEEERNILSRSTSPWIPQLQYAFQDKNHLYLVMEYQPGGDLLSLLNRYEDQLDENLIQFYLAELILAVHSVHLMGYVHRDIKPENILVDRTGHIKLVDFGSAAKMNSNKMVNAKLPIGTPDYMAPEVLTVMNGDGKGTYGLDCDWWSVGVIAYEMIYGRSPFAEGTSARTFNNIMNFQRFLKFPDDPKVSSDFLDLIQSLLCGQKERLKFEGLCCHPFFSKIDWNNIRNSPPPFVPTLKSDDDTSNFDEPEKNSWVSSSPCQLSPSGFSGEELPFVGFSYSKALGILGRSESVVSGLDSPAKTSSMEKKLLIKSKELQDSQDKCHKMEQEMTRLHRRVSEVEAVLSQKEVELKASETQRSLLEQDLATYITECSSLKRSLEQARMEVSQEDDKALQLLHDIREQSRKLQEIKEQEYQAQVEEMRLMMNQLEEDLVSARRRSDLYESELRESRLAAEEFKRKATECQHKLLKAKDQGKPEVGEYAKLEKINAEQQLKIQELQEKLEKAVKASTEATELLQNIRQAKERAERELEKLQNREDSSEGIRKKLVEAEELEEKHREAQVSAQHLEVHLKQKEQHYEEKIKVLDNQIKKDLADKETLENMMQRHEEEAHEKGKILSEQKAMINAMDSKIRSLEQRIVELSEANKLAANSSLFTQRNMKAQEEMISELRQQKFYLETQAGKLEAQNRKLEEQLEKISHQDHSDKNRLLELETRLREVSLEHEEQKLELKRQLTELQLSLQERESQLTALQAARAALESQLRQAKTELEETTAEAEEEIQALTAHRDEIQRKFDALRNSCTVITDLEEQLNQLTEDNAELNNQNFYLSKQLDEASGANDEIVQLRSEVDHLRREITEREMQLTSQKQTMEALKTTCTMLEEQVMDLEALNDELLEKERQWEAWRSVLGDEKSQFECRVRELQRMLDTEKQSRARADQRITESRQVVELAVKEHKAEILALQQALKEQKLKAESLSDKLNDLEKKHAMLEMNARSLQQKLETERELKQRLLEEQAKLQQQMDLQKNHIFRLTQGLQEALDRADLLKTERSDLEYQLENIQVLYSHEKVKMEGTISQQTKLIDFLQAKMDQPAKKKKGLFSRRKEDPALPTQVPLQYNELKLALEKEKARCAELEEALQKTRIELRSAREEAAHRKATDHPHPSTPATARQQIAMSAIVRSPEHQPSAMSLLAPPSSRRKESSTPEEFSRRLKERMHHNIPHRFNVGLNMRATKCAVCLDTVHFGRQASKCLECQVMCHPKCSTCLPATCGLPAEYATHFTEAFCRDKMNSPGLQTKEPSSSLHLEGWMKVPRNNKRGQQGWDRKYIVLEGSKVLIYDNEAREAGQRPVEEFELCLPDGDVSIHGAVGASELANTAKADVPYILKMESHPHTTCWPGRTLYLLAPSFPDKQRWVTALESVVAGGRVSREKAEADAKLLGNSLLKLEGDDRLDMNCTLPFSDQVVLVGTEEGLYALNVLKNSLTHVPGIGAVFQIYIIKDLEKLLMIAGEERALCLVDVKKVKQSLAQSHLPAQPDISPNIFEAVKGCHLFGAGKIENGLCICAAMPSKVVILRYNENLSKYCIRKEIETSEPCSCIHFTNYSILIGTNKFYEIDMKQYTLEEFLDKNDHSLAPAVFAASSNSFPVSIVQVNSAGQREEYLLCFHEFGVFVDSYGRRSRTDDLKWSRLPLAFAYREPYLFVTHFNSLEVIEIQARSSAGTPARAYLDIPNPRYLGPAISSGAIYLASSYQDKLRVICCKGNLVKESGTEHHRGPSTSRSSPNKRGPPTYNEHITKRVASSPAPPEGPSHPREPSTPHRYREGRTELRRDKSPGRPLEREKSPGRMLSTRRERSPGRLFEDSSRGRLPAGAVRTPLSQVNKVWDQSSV

How the values were obtained:
[1] = target: endogenous PIPKIγ (HeLa) (human (endogenous in HeLa)) (UniProt O60331); assay: co-IP; endogenous PIPKIγ immunoprecipitated (rabbit anti-PIPKIγ on protein A/G magnetic beads, 3-4 h at 4 °C) from lysates of HeLa cells in cytokinesis or arrested in S-phase by thymidine; Western blot
[2] = target: T1, endogenous SEPT2 (HeLa) (human (endogenous in HeLa)) (UniProt Q15019); assay: co-IP; endogenous SEPT2 immunoprecipitated (rabbit anti-SEPT2 on protein A/G magnetic beads, 3-4 h at 4 °C) from lysates of HeLa cells in cytokinesis or arrested in S-phase by thymidine; Western blot
T1 sequence: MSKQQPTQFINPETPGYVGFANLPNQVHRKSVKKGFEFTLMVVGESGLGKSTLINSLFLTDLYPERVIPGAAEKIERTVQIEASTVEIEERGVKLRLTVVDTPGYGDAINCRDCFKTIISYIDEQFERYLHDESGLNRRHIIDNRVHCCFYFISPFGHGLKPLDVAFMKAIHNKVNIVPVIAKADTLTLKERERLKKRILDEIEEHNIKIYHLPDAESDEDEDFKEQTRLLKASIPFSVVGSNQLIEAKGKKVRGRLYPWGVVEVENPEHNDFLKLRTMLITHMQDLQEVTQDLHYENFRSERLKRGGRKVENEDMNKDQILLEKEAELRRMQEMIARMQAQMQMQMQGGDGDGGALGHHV

Molecule: citron kinase (from UniProt O14578 1-2027)
- binding [1]: binds

B1: mitotic kinesin-like protein 1 (MKLP1) (protein, UniProt Q02241 1-960)
chain: MKSARAKTPRKPTVKKGSQTNLKDPVGVYCRVRPLGFPDQECCIEVINNTTVQLHTPEGYRLNRNGDYKETQYSFKQVFGTHTTQKELFDVVANPLVNDLIHGKNGLLFTYGVTGSGKTHTMTGSPGEGGLLPRCLDMIFNSIGSFQAKRYVFKSNDRNSMDIQCEVDALLERQKREAMPNPKTSSSKRQVDPEFADMITVQEFCKAEEVDEDSVYGVFVSYIEIYNNYIYDLLEEVPFDPIKPKPPQSKLLREDKNHNMYVAGCTEVEVKSTEEAFEVFWRGQKKRRIANTHLNRESSRSHSVFNIKLVQAPLDADGDNVLQEKEQITISQLSLVDLAGSERTNRTRAEGNRLREAGNINQSLMTLRTCMDVLRENQMYGTNKMVPYRDSKLTHLFKNYFDGEGKVRMIVCVNPKAEDYEENLQVMRFAEVTQEVEVARPVDKAICGLTPGRRYRNQPRGPVGNEPLVTDVVLQSFPPLPSCEILDINDEQTLPRLIEALEKRHNLRQMMIDEFNKQSNAFKALLQEFDNAVLSKENHMQGKLNEKEKMISGQKLEIERLEKKNKTLEYKIEILEKTTTIYEEDKRNLQQELETQNQKLQRQFSDKRRLEARLQGMVTETTMKWEKECERRVAAKQLEMQNKLWVKDEKLKQLKAIVTEPKTEKPERPSRERDREKVTQRSVSPSPVPLSSNYIAQISNGQQLMSQPQLHRRSNSCSSISVASCISEWEQKIPTYNTPLKVTSIARRRQQEPGQSKTCIVSDRRRGMYWTEGREVVPTFRNEIEIEEDHCGRLLFQPDQNAPPIRLRHRRSRSAGDRWVDHKPASNMQTETVMQPHVPHAITVSVANEKALAKCEKYMLTHQELASDGEIETKLIKGDIYKTRGGGQSVQFTDIETLKQESPNGSRKRRSSTVAPAQPDGAESEWTDVETRCSVAVEMRAGSQLGPGYQHHAQPKRKKP
- binding [1]: binds

Further lines, results first:

- binding [2]: binds
Molecule: endogenous PIPKIγ (HeLa) (from UniProt O60331-3) (enzyme)

- binding [1]: no binding
B2: anillin (protein, UniProt Q9NQW6 1-1124)
chain: MDPFTEKLLERTRARRENLQRKMAERPTAAPRSMTHAKRARQPLSEASNQQPLSGGEEKSCTKPSPSKKRCSDNTEVEVSNLENKQPVESTSAKSCSPSPVSPQVQPQAADTISDSVAVPASLLGMRRGLNSRLEATAASSVKTRMQKLAEQRRRWDNDDMTDDIPESSLFSPMPSEEKAASPPRPLLSNASATPVGRRGRLANLAATICSWEDDVNHSFAKQNSVQEQPGTACLSKFSSASGASARINSSSVKQEATFCSQRDGDASLNKALSSSADDASLVNASISSSVKATSPVKSTTSITDAKSCEGQNPELLPKTPISPLKTGVSKPIVKSTLSQTVPSKGELSREICLQSQSKDKSTTPGGTGIKPFLERFGERCQEHSKESPARSTPHRTPIITPNTKAIQERLFKQDTSSSTTHLAQQLKQERQKELACLRGRFDKGNIWSAEKGGNSKSKQLETKQETHCQSTPLKKHQGVSKTQSLPVTEKVTENQIPAKNSSTEPKGFTECEMTKSSPLKITLFLEEDKSLKVTSDPKVEQKIEVIREIEMSVDDDDINSSKVINDLFSDVLEEGELDMEKSQEEMDQALAESSEEQEDALNISSMSLLAPLAQTVGVVSPESLVSTPRLELKDTSRSDESPKPGKFQRTRVPRAESGDSLGSEDRDLLYSIDAYRSQRFKETERPSIKQVIVRKEDVTSKLDEKNNAFPCQVNIKQKMQELNNEINMQQTVIYQASQALNCCVDEEHGKGSLEEAEAERLLLIATGKRTLLIDELNKLKNEGPQRKNKASPQSEFMPSKGSVTLSEIRLPLKADFVCSTVQKPDAANYYYLIILKAGAENMVATPLASTSNSLNGDALTFTTTFTLQDVSNDFEINIEVYSLVQKKDPSGLDKKKKTSKSKAITPKRLLTSITTKSNIHSSVMASPGGLSAVRTSNFALVGSYTLSLSSVGNTKFVLDKVPFLSSLEGHIYLKIKCQVNSSVEERGFLTIFEDVSGFGAWHRRWCVLSGNCISYWTYPDDEKRKNPIGRINLANCTSRQIEPANREFCARRNTFELITVRPQREDDRETLVSQCRDTLCVTKNWLSADTKEERDLWMQKLNQVLVDIRLWQPDACYKPIGKP

These are yes or no findings as the source states them, for the method shown. Binding seen in cells or lysates may run through a third protein. Binding calls can cover weak binding; strength is not graded here. One block for each molecule: values may come before it.
